No constants are given. Whether binding was seen depends on the method and setting. In cells and extracts the contact can be indirect. For part of these data: Binding can be weak; no strength is given.
Key:
[1] = molecular target: T1, PR130, PP2A regulatory subunit encoded by PPP2R3A (human (endogenous in HCT116)) (UniProt Q06190); assay: co-IP; PR130 immunoprecipitated from HCT116 cells treated with MS-275 (the discussion says hydroxyurea plus MS-275); precipitate probed for PP2A-A and PP2A-C (Supplementary Fig. 4e)
T1 sequence: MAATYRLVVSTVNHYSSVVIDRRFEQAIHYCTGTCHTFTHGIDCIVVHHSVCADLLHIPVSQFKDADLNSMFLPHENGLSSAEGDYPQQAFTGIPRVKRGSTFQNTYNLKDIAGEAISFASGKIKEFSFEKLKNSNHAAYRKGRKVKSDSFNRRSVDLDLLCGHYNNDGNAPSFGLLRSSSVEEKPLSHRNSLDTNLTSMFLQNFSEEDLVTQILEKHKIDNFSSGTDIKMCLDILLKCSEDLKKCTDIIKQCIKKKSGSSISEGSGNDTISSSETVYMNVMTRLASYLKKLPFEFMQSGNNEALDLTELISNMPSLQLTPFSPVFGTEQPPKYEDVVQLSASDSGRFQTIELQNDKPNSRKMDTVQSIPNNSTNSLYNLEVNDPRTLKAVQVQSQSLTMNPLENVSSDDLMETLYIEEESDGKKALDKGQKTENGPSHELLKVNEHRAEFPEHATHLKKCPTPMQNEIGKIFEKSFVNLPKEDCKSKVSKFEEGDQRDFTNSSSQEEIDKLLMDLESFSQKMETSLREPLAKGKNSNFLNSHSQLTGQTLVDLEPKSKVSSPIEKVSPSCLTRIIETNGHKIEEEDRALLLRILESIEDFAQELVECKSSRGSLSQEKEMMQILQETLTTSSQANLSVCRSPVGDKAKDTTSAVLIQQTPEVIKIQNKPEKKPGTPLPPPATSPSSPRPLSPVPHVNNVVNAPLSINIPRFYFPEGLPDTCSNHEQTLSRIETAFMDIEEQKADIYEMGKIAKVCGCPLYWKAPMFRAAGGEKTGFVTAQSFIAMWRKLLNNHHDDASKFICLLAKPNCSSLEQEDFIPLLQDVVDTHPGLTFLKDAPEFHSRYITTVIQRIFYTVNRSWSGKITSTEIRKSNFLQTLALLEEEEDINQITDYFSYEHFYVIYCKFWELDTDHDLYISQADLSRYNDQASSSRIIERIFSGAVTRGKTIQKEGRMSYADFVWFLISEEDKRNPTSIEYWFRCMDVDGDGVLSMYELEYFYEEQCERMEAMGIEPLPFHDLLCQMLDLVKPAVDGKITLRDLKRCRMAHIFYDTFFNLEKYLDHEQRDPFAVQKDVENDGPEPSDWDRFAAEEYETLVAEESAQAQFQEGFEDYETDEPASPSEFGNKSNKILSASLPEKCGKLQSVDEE

Chains of the proteins cited; added tags and fusions are not shown. Lines headed by an entry give the natural chain unless they say otherwise; changes in a name come on top.
UniProt Q13315: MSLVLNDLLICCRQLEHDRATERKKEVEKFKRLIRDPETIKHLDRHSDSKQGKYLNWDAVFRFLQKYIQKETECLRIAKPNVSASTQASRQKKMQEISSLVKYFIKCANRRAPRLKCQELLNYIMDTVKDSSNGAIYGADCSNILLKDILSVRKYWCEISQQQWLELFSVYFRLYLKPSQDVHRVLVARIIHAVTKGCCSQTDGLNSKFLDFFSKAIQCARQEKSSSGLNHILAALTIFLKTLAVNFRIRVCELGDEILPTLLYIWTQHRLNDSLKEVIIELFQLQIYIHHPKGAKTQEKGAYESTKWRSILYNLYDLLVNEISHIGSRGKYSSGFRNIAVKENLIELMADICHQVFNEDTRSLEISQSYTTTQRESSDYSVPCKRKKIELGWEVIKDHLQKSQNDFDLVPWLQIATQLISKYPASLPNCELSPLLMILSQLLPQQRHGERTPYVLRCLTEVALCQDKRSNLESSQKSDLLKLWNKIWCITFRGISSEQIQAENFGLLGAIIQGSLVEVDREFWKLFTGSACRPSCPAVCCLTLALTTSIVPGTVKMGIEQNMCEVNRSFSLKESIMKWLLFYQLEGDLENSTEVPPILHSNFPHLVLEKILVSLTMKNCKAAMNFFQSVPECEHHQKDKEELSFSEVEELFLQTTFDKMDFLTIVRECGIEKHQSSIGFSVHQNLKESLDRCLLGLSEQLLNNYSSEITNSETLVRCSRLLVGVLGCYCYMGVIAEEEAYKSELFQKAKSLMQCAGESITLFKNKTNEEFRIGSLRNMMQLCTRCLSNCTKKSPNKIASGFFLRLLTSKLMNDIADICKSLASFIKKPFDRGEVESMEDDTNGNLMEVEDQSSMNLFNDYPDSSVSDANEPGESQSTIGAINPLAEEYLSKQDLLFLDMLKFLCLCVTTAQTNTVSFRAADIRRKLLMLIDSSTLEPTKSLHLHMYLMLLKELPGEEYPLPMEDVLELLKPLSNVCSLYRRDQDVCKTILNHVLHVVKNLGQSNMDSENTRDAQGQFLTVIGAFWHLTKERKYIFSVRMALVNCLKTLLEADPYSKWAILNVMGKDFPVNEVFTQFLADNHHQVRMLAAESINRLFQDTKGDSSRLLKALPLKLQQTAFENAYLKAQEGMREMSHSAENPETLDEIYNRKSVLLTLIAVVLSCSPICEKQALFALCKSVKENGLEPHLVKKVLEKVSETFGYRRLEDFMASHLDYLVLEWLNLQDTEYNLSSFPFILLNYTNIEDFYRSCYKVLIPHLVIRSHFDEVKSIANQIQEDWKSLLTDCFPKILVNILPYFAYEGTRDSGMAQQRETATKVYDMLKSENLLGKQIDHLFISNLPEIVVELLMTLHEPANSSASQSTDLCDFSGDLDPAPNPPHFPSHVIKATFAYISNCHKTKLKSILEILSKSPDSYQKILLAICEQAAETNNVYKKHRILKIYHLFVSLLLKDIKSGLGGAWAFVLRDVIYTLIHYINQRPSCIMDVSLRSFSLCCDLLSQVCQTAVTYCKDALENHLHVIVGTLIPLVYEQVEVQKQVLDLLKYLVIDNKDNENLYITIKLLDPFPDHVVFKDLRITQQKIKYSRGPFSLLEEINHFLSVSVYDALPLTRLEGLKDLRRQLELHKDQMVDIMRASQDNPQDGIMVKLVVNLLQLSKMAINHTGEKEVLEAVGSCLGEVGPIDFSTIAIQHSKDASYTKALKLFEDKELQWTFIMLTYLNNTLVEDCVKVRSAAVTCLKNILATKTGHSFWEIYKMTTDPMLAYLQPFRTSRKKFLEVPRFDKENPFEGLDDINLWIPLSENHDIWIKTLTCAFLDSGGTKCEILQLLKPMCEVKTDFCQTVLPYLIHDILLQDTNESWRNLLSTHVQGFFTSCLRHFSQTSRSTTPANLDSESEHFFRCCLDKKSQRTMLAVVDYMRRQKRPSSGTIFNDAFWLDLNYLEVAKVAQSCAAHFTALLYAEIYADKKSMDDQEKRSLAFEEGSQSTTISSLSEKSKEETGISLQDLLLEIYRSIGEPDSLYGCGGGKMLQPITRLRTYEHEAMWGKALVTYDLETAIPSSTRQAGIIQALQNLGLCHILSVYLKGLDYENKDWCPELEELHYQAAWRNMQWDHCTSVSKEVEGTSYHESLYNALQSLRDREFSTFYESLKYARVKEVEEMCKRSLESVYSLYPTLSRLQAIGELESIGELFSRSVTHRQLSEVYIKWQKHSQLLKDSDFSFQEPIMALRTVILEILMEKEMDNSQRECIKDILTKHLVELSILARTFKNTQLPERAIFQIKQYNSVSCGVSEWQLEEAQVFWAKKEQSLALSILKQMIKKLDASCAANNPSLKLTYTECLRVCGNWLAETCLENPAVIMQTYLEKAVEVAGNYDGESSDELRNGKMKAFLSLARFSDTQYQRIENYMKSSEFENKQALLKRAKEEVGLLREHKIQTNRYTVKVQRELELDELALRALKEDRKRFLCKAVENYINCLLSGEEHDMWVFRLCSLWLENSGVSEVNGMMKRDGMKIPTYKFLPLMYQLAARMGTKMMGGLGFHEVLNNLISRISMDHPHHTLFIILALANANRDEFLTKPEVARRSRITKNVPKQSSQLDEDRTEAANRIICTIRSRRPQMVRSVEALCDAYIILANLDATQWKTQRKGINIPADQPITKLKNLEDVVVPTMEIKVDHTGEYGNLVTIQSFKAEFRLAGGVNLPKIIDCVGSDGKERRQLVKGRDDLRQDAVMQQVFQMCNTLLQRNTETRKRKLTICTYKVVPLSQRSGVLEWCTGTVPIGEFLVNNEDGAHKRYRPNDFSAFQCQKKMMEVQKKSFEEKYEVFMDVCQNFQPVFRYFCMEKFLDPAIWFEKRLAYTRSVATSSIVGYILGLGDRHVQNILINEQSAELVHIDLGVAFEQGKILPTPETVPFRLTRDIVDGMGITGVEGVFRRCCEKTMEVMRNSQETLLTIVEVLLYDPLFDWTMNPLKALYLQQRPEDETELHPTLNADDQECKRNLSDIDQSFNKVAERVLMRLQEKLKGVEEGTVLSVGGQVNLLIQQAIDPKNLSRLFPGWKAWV
UniProt P67775: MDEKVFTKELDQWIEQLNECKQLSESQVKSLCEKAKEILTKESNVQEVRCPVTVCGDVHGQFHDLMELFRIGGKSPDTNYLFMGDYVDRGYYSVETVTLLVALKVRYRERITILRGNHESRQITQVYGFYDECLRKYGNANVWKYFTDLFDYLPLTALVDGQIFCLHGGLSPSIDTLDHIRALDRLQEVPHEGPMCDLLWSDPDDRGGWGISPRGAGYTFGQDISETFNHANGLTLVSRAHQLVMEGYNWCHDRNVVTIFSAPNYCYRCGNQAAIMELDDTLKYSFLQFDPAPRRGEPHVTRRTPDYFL

[2] = molecular target: ATM (ataxia telangiectasia mutated) (human (endogenous in HCT116 and K562)) (UniProt Q13315); assay: co-IP; HCT116 and K562 cells; no PFA fixation; lysis in NET-N buffer; 2 mg protein with 0.8 µg anti-ATM antibody (Millipore PC116) or rabbit IgG overnight at 4 °C; four washes with NET-N buffer; probed for PP2A-A and PP2A-C (Supplementary Fig. 4f)

binding [1]	Substance	binding [2]
binds	PP2A-A (structural subunit of PP2A, PPP2R1A/B) (human (endogenous in HCT116 and K562))	–
binds	PP2A-C (catalytic subunit of PP2A, PPP2CA/B) (from UniProt P67775) (enzyme)	no binding

From publication PMC5823910
